Results from publication PMC10229898.
No constants are given. Whether binding was seen depends on the method and setting. Binding seen in cells or lysates may run through a third protein. Some results given as binding are weak or reduced against the parent protein; the word gives no strength. Tags and fused reporters may be left off the sequences shown.

B1: serum response factor (SRF), endogenous (protein, UniProt P11831 1-508)
chain: MLPTQAGAAAALGRGSALGGSLNRTPTGRPGGGGGTRGANGGRVPGNGAGLGPGRLEREAAAAAATTPAPTAGALYSGSEGDSESGEEEELGAERRGLKRSLSEMEIGMVVGGPEASAAATGGYGPVSGAVSGAKPGKKTRGRVKIKMEFIDNKLRRYTTFSKRKTGIMKKAYELSTLTGTQVLLLVASETGHVYTFATRKLQPMITSETGKALIQTCLNSPDSPPRSDPTTDQRMSATGFEETDLTYQVSESDSSGETKDTLKPAFTVTNLPGTTSTIQTAPSTSTTMQVSSGPSFPITNYLAPVSASVSPSAVSSANGTVLKSTGSGPVSSGGLMQLPTSFTLMPGGAVAQQVPVQAIQVHQAPQQASPSRDSSTDLTQTSSSGTVTLPATIMTSSVPTTVGGHMMYPSPHAVMYAPTSGLGDGSLTVLNAFSQAPSTMQVSHSQVQEPGGVPQVFLTASSGTVQIPVSAVQLHQMAVIGQQAGSSSNLTELQVVNLDTAHSTKSE
B2: SRF-FLAG (FLAG-hSRF) (protein, UniProt P11831 1-508)
chain: B1 chain

Experiments:
[1] = biological target: T1, green fluorescence protein (GFP)-fused CRP2 (cysteine-rich protein 2; cysteine- and glycine-rich protein 2) (UniProt Q16527); assay: co-IP; GFP-Trap magnetic agarose beads (anti-GFP nanobodies) on 1 mg of lysate protein from CRP2-GFP- or GFP-expressing MDA-MB-231 cells; lysis buffer 10 mM Tris-HCl pH 7.5, 150 mM NaCl, 0.5 mM EDTA, 0.5% NP-40; bound fraction probed for SRF and GFP
T1 sequence: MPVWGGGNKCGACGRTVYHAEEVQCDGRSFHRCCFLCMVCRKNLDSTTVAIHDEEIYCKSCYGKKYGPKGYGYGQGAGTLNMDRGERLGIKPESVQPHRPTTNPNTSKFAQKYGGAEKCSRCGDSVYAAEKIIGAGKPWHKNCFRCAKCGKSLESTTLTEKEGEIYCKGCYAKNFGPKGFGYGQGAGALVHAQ

[2] = biological target: T1, green fluorescence protein (GFP)-fused CRP2 (cysteine-rich protein 2; cysteine- and glycine-rich protein 2); assay: proximity ligation; Duolink PLA in fixed (4% PFA), permeabilised MDA-MB-231 cells expressing CRP2-GFP, 24 h after transfection with FLAG-hSRF; anti-CRP2 and anti-FLAG antibodies; foci counted in nuclei

binding [1] | binding [2] | Binder
binds | – | B1
– | binds | B2
